Measured values reported in article PMC8884909.
Results are given in words; binding and its absence hold for the method and conditions named. Binding seen in cells or lysates may run through a third protein. Some results given as binding are weak or reduced against the parent protein; the word gives no strength.

The chains behind the UniProt entries cited, without tags or fusion partners. Residues count along the entry.
UniProt Q9P1W8, residues 29-387: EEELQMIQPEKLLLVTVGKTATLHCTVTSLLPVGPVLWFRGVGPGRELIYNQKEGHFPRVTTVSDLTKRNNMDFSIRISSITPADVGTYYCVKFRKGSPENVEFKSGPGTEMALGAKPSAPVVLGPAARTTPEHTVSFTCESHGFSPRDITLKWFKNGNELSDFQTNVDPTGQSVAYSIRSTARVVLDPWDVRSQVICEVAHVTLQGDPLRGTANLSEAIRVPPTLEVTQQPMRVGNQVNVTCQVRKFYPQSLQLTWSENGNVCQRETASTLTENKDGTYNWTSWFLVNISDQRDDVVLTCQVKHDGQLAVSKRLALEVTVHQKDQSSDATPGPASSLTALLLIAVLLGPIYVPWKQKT

Target: T1, MST1 (macrophage stimulating 1; also known as serine/threonine kinase 4, STK4) (human (endogenous in A549 and H1975)) (UniProt Q13043)
T1 sequence: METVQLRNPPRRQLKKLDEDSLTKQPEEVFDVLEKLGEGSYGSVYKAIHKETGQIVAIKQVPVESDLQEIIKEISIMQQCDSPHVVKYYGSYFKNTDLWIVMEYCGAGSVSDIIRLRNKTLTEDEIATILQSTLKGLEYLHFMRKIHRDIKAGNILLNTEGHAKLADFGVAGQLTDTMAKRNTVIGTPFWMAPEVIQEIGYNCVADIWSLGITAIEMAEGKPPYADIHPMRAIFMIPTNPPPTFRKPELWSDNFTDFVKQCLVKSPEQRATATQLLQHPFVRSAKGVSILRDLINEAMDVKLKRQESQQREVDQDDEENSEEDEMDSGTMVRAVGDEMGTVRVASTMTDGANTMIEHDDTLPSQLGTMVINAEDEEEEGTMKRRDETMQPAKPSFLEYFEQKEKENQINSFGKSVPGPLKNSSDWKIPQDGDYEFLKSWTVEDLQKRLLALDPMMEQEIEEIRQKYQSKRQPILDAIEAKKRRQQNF
Test: co-IP; endogenous proteins precipitated from A549 and H1975 cell lysates with specific antibodies (anti-SIRPγ, anti-MST1, anti-PP2A), immunoblot

binding: binds
Substance: signal regulatory protein γ (SIRPγ) (from UniProt Q9P1W8 29-387)
